# Assay results as given in PubChem BioAssay AID1347075 (National Center for Advancing Translational Sciences (NCATS), 2019).
# Screen size: about 400,000 compounds; about 5,500 (1.4%) were called active. This list was built around the results that the source calls inconclusive (neither active nor inactive); the mix of calls is not that of the screen. Calls come from the whole dose curve; as a rule, active = well fitted cell-killing curve with a large enough effect; inconclusive = small, poorly fitted or top-dose-only effect, or effect the other way; inactive = flat fitted curve, though single readings scatter. A potency beside an inconclusive call is a rough fit, not a confirmed value. The source holds several records for some structures; these can differ, active in one and inactive in another.
# Assay: qHTS assay for MDR1-selective chemotherapeutics: Primary screen using the parental adenocarcinoma cell KB-3-1; note: nearly all actives have a fitted effect of over 60% in size
# Conditions: KB-3-1 viability, CellTiter-Glo ATP luminescence, 72 h; activity change, negative = cytotoxic: at 46.1 µM (top of the series)
# In short: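 Parental KB-3-1 adenocarcinoma cells in phenol-red-free DMEM with 10% FBS were pin-treated with compounds at several concentrations, incubated 72 h at 37 °C, and viability read by CellTiter-Glo luminescence; concentration-effect curves were fitted after normalization.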
# % is set by controls: 0 for no effect and ±100 for the full control effect; potency is the fitted concentration of half-maximal effect.
SMILES,Potency,"activity change, negative = cytotoxic"
COc1cc(C(=O)Nc2ccc(-c3nc4cc(C)ccc4o3)c(O)c2)cc(OC)c1OC,"inconclusive: 29.1 µM [cytotoxic, single point]",–
COc1cc(N2CCCC2)c(OC)cc1/C=C(/C#N)c1ccc(F)cc1,"inconclusive: 20.6 µM [cytotoxic, single point]",–
COc1ccc2cc3[n+](cc2c1OC)CCc1cc2c(cc1-3)OCO2,active: 7.31 µM,–
C=CC[C@H](c1ccc(F)cc1)N(CC(C)C)S(=O)(=O)C=C,"inconclusive: 29.1 µM [cytotoxic, single point]",–
Cc1cccc(-c2nc(CN3CCCC(C(=O)NCCc4ccc(Cl)cc4)C3)c(C)o2)c1 (configuration not stated),"inconclusive: 29.1 µM [cytotoxic, single point]",–
COc1ccccc1/C=N/N1CCN(c2ccc(Cl)cc2)CC1,–,inactive: 1.04%
CCCCn1c(=O)[nH]c(=O)c2c(C(=O)OCC)cc(-c3cccs3)nc21,"inconclusive: 29.1 µM [cytotoxic, single point]",–
CCOC(=O)c1cccc(NC(=O)c2cnc3sc(N4CCOCC4)nn3c2=O)c1,–,inactive: -18.9%
CCc1ccc2nc(N(CCCN(C)C)C(=O)c3ccc(S(=O)(=O)N4CCc5ccccc5C4)cc3)sc2c1,–,inactive: -1.94%
COC(=O)c1ccccc1NC(=O)CSc1nc(C)c(Cl)c(C)c1C#N,"inconclusive: 23.1 µM [cytotoxic, single point]",–
Cc1c(Cl)cccc1N/C(SCC(=O)N1CCCCCC1)=C(/C#N)c1nc2ccccc2s1,active: 20.6 µM,–
COc1ccccc1NS(=O)(=O)c1cccc(-n2c(O)c(C=Nc3ccccc3C(=O)O)c3ccccc3c2=O)c1,–,inactive: -0.575%
CCCCc1c(-c2ccccc2OC)ncn1Cc1cccc(-c2ccccc2)c1,"inconclusive: 18.4 µM [cytotoxic, single point]",–
O=C1c2c(-c3ccc(Br)cc3)noc2CCN1Cc1cn(C2CCCC2)nn1,"inconclusive: 29.1 µM [cytotoxic, single point]",–
CCOc1ccc2nc(SCC(=O)NNC(=O)c3ccco3)c(C)cc2c1,"inconclusive: 29.1 µM [rising, single point]",–
N#CC(c1ccccc1)c1ccc2c(C(F)(F)F)cc(C(F)(F)F)nc2n1 (configuration not stated),"inconclusive: 13 µM [cytotoxic, partial curve]",–
COc1ccc(NC(=O)C2(C)Cc3c(-c4cccc(C(N)=O)c4)ccnc3O2)cc1 (configuration not stated),active: 7.31 µM,–
CCN(CC)CCOC(=O)c1ccc(NC(=O)CCCN2C(=O)/C(=C\c3cccs3)SC2=S)cc1,"inconclusive: 29.1 µM [cytotoxic, single point]",–
O=C(CN(Cc1ccccc1Cl)C(=O)c1ccc(CN2CCOCC2)o1)NCc1ccccc1,–,inactive: 9.66%
Nc1cccc(NC(=O)CN2CCOCC2)c1,"inconclusive: 18.4 µM [rising, single point]",–
Cc1ccc(Nc2nc(NCc3cccs3)nc3ccsc23)c(C)c1,"inconclusive: 29.1 µM [cytotoxic, single point]",–
Cc1noc(NS(=O)(=O)c2ccc(N/C=C\C(=O)c3ccccc3)cc2)c1C,"inconclusive: 3.26 µM [cytotoxic, partial curve, poor fit]",–
C/C(=N\NC(=O)c1ccc(C)cc1)c1c(C)[nH]n(-c2ccccc2)c1=O,"inconclusive: 23.1 µM [cytotoxic, partial curve]",–

SMILES,Potency,"activity change, negative = cytotoxic"
S=c1[nH]nc(-c2ccco2)n1/N=C/c1c(Cl)cccc1Cl,–,inactive: 8.61%
CCn1c(=O)c(C(=O)CN(C)Cc2cccc(OC)c2OC)c(N)n(Cc2ccccc2)c1=O,–,inactive: -5.32%
O=C(Cn1nc2ccccc2n1)N/N=C/c1cc([N+](=O)[O-])ccc1O,"inconclusive: 29.1 µM [cytotoxic, single point]",–
COCCNC(=O)CN1C(=O)c2cccnc2Oc2ccc(Cl)cc21,"inconclusive: 20.6 µM [rising, partial curve, poor fit]",–
COC(=O)c1c(-c2ccc3ccccc3c2)csc1NC(=O)Cc1ccc(OC)c(OC)c1,"inconclusive: 18.4 µM [cytotoxic, single point]",–
Cc1ccc(S(=O)(=O)N(CCc2ccccc2)CC(=O)Nc2ccc(Br)cc2)cc1,"inconclusive: 13 µM [cytotoxic, partial curve]",–
COC(=O)c1[nH]c2ccccc2c1NC(=O)CN1CCN(c2cccc(OC)c2)C(C)C1 (configuration not stated),active: 18.4 µM,–
CCOC(=O)N1CCC(O)(c2cc(C)c(C)cc2C)CC1,"inconclusive: 29.1 µM [cytotoxic, single point]",–
CC1=C(C(=O)NC2CCCc3c2cnn3-c2ccc(F)cc2F)OCCO1 (configuration not stated),"inconclusive: 32.6 µM [cytotoxic, single point]",–
Cc1cccc(NC(=O)c2oc3ccccc3c2NC(=O)Cc2coc3ccc(C(C)C)cc23)c1,"inconclusive: 20.6 µM [cytotoxic, partial curve]",–
N#Cc1ncc(-c2ccc3c(c2)OCCOCCOCCOCCO3)nc1C#N,"inconclusive: 20.6 µM [cytotoxic, single point]",–
Cc1ccc([C@H]2C[C@H](n3cc(-c4ccc(F)cc4)nn3)[C@@H](O)CN2CC2CCCCC2)cc1,"inconclusive: 23.1 µM [cytotoxic, single point]",–
COC(=O)c1cnn(-c2cc(Oc3cccc(C)c3)ncn2)c1N,"inconclusive: 29.1 µM [cytotoxic, single point]",–
O=C(CCCN1C(=O)/C(=C/c2ccccc2)SC1=S)N1CCOCC1,"inconclusive: 29.1 µM [cytotoxic, single point]",–
O=C(Nc1ccccc1N1CCN(C(=O)c2ccccc2)CC1)c1ccc(Br)o1,"inconclusive: 8.2 µM [cytotoxic, single point]",–
COC(=O)C1=C(C)N(Cc2ccccc2)C(=NCc2cccc(Cl)c2)N[C@H]1c1cccc(F)c1,"inconclusive: 29.1 µM [cytotoxic, single point]",–
CCn1c(-c2cccc(Br)c2)n[nH]c1=S,"inconclusive: 29.1 µM [cytotoxic, single point]",–
CC(C)CC(N)c1csc(Nc2ccc(C(=O)N(C)Cc3ccccc3)cn2)n1 (configuration not stated),"inconclusive: 25.9 µM [cytotoxic, single point]",–
Fc1ccc(NC(=S)NCCc2ccc(Cl)cc2)cc1,–,inactive: -21.1%
CC(C)CNc1nc(N)c([N+](=O)[O-])c(N2CCCCCC2)n1,active: 18.4 µM,–
Cc1ccc(NC(=O)c2ccc(=O)n(Cc3ccccc3C)c2)c(C)c1,–,inactive: 0.417%
Cc1cc(C)cc(Oc2coc3cc(OC(=O)c4cccs4)ccc3c2=O)c1,–,inactive: -14.6%
CCOC(=O)c1c(S(=O)(=O)N2CCCC(C(=O)NCc3ccccc3OC)C2)c(C)n(C)c1C (configuration not stated),–,inactive: 3.44%

# As entered above.
# In Potency, `Cc1cccc(NC(=O)c2oc3ccccc3c2NC(=O)Cc2coc3ccc(C(C)C)cc23)c1` is listed with inconclusive: 20.6 µM [cytotoxic, partial curve]
# In activity change, negative = cytotoxic, `CCOC(=O)c1c(S(=O)(=O)N2CCCC(C(=O)NCc3ccccc3OC)C2)c(C)n(C)c1C` (configuration not stated) is listed with inactive: 3.44%
# In Potency, `CC1=C(C(=O)NC2CCCc3c2cnn3-c2ccc(F)cc2F)OCCO1` (configuration not stated) is listed with inconclusive: 32.6 µM [cytotoxic, single point]
# In Potency, `COC(=O)c1c(-c2ccc3ccccc3c2)csc1NC(=O)Cc1ccc(OC)c(OC)c1` is listed with inconclusive: 18.4 µM [cytotoxic, single point]

# Next records follow.

SMILES,Potency,"activity change, negative = cytotoxic"
Cc1ccc(S(=O)(=O)NC(C)C(c2cccs2)N2CCN(c3ccccc3)CC2)cc1 (configuration not stated),"inconclusive: 18.4 µM [cytotoxic, single point]",–
COc1ccccc1-c1nnc(NC(=O)c2ccc(S(=O)(=O)N3CCOCC3)cc2)o1,"inconclusive: 25.9 µM [cytotoxic, single point]",–
Cc1ccc(CN2CCCn3nc(C(=O)NCCc4cccc(C)c4)cc3C2=O)cc1,"inconclusive: 25.9 µM [cytotoxic, partial curve, poor fit]",–
N#Cc1c(NC(=O)C2CCCO2)sc2c1CCCCCC2 (configuration not stated),–,inactive: 5.65%
Clc1ccc(-c2cc(-c3ccccn3)on2)c(Cl)c1,"inconclusive: 29.1 µM [cytotoxic, partial curve, poor fit]",–
CSc1nncc(=O)[nH]1,–,inactive: 1.73%
COc1ccc2c(c1)C(=NNC(=O)c1ccccn1)c1cc(OC)ccc1-2,"inconclusive: 16.4 µM [rising, partial curve]",–
CCOc1ccc(Cl)cc1-c1cc(C(=O)NCc2cc(C(F)(F)F)cc(C(F)(F)F)c2)[nH]n1,"inconclusive: 29.1 µM [cytotoxic, single point]",–
Cc1ccc(CNC(=O)c2ccc3c(O)c(S(=O)(=O)c4ccc(Cl)cc4)c(=O)[nH]c3c2)cc1,–,inactive: 2.93%
CCOc1ccc(-n2c(-c3ccc(Br)cc3)c[n+]3c2CCCCC3)cc1,"inconclusive: 29.1 µM [cytotoxic, single point]",–
COc1ccc(CCNCc2ccc3c(c2)n(C)c(=O)n3C)cc1OC,–,inactive: -0.778%
O=C(c1ccc(Cl)c(S(=O)(=O)N2CCCCCC2)c1)N1CCN(c2ccccn2)CC1,–,inactive: 3.93%
Cc1cccc(N2CCN(C(=O)c3cnn4c(C(F)F)cc(-c5ccccc5)nc34)CC2)c1C,"inconclusive: 23.1 µM [cytotoxic, single point]",–
Cc1c(C(=O)Nc2ccccc2Cl)oc2ccc(S(=O)(=O)N3CCCCC3)cc12,–,inactive: 2.18%
N=C1/C(=C/c2cccs2)C(=O)N=C2SN=C(SCc3ccccc3)N12,"inconclusive: 23.1 µM [cytotoxic, partial curve]",–
O=C1CCCN1CCCNc1nc2c(S(=O)(=O)c3ccccc3)nnn2c2ccc(Cl)cc12,"inconclusive: 16.4 µM [cytotoxic, partial curve, poor fit]",–
Cc1c(CCOC(=O)C2C3CC4CC(C3)CC2C4)sc[n+]1CC(=O)c1ccc(Br)cc1 (configuration not stated),"inconclusive: 29.1 µM [cytotoxic, single point]",–
Cc1ccnc(NC(=O)CSc2cc(=O)n(C)c3ccccc23)c1,"inconclusive: 32.6 µM [cytotoxic, single point]",–
CCCOc1ccc(C2CC(=O)Nc3c2c(=O)n(C)c(=O)n3C)cc1OC (configuration not stated),–,inactive: 6.87%
COc1ccc(NC(=O)Cn2cc(S(=O)(=O)Cc3ccccc3)c3ccccc32)c(OC)c1,–,inactive: 6.93%
O=C(c1cc2cc(Cl)ccc2[nH]1)N1CCN(Cc2ccc3c(c2)OCO3)CC1,"inconclusive: 18.4 µM [cytotoxic, single point]",–
